The results in this text go back to article PMC10103708.

By UniProt entry, the sequences of proteins in these tests, tags left out.
UniProt Q9NYB9: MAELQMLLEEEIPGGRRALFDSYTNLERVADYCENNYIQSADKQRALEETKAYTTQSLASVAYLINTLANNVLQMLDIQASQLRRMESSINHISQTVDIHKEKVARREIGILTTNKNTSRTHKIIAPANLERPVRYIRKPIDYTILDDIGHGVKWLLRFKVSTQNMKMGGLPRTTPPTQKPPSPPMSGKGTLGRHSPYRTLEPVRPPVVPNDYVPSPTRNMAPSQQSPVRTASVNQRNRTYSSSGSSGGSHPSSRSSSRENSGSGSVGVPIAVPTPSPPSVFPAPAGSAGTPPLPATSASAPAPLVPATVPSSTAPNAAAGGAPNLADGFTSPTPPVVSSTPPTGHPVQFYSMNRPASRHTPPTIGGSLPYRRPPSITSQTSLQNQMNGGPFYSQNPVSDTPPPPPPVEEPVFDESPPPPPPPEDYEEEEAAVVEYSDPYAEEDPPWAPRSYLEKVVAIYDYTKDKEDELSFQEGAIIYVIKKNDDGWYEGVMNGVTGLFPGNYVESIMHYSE
UniProt Q9Y6W5: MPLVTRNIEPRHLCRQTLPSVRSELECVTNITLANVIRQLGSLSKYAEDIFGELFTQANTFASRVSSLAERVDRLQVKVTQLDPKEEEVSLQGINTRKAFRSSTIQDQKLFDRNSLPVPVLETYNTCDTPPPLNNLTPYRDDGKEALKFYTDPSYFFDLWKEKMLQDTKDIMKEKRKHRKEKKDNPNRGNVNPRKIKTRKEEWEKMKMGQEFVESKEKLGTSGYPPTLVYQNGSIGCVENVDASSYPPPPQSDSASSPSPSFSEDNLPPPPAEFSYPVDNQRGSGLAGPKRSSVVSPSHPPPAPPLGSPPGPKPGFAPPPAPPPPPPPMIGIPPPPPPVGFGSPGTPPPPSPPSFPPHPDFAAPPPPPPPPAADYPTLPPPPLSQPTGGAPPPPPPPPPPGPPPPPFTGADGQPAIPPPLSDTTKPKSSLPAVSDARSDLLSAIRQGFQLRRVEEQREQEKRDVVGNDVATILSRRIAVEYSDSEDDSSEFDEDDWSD

In this test the target is Abl-interactor 2 (ABI2), HA-tagged (UniProt Q9NYB9). In words: co-IP; HA-ABI2 and GFP-WAVE2 co-transfected; cells cultured in normoxia or hypoxia (1% O2); legend: 293T, 4 h, IP with anti-HA beads, blot for GFP; text: DU145, 16 h, IP by the GFP tag, blot for HA; IP lysis buffer 20 mM Tris HCl pH 8, 137 mM NaCl, 10% glycerol, 1% Nonidet P-40, 2 mM EDTA; overnight at 4°C.

These are yes or no findings as the source states them, for the method shown. Binding seen in cells or lysates may run through a third protein. Some entries that bind do so weakly or less than the wild type.

With “WAVE2 (WASp-family verprolin homologous protein 2), GFP-tagged (from UniProt Q9Y6W5 1-498)”, the binding entry is “binds”.
